Source: PubChem BioAssay (NCATS)
The list shows a part of the results. The main result of the screen is listed elsewhere. These columns were measured beside it and carry no call. The list favours compounds with an active or inconclusive main result.

Test: qHTS assay for small molecule antagonists of retinoid X receptor alpha signaling (AID 588546);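 note: cells stimulated with 9-cis-retinoic acid as agonist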
Conditions: HEK293T RXRa-UAS-bla, beta-lactamase ratio, antagonist mode; measured here: W530 green channel, cytotoxicity proxy
Procedure, shortened: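 Beta-lactamase reporter inhibition, read as CCF4 fluorescence ratio (ex 405, em 460/530 nm) after 2 h at RT. HEK293T UAS-bla cells, 2500/well, were stimulated with 9-cis-RA at 500 or 100 nM final alongside test compound for 18 h at 37 C.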
% is set by controls: 0 for no effect and ±100 for the full control effect.

Compound | max response [%]
CCOC(C)=O | -16.6
c1ccc2c(c1)ccc1cc3c(ccc4ccccc43)cc12 | -7.56
CC(C)[C@@H]1CC[C@@H](C)C[C@H]1O | -7.44
CC(=O)[C@H]1[C@H](C#N)C[C@H]2[C@@H]3CC=C4C[C@@H](O)CC[C@]4(C)[C@H]3CC[C@@]21C | 28.3
c1ccc(Nc2cccc3ccccc23)cc1 | -1.93
Nc1c2ccccc2nc2ccccc12 | 30.1
O=S(=O)(O)c1cc(S(=O)(=O)O)c2c(N=Nc3ccccc3)c(O)ccc2c1 | -14.3
CCCCCCC(O)CCCCCCCCCCC(=O)O (stereo not given) | 0.416
C=C1CC[C@H](O)C/C1=C/C=C1\CCC[C@]2(C)[C@@H]([C@H](C)CCCC(C)C)CC[C@@H]12 | 13.2
COc1cccc(N)c1 | -10.2
Cc1ccc2oc(=O)ccc2c1 | -10.6
CN1C(=O)c2ccccc2C1=O | -11.4
c1ccncc1 | -10.4
CC(C)(C)c1cc(C(C)(C)C)c(O)c(C(C)(C)C)c1 | -14
C/C=C/C=C/C=O | 0.0091
Cc1cc(C)c(N)c(Cl)c1 | 3.31
CCCOC(=O)c1cc(O)c(O)c(O)c1 | 1.18
C=C(C)C(=O)OCCCCCC | -13.9
CCCCN(CCCC)CCCCCCN(CCCC)CCCC | -9.64
CC(C)C[C@H](NC(=O)OCC1c2ccccc2-c2ccccc21)C(=O)O | 12.6
N[C@@H](Cc1cc(I)c(Oc2ccc(O)c(I)c2)c(I)c1)C(=O)O | 5.24
CN(C)c1nc(=O)n(C2CCC(O)CC2)c(=O)n1C (stereo not given) | -9.35
O=C(c1ccccc1)C(O)c1ccccc1 (stereo not given) | -11.9
Brc1ccc(-c2ccccc2)cc1 | -4.11
CC/C=C/CCCCCCCCCCOC(C)=O | -9.46

Shown in markdown: entries from further up.

| Compound | max response [%] |
| --- | --- |
| c1ccc2c(c1)ccc1cc3c(ccc4ccccc43)cc12 | -7.56 |
| CC(C)[C@@H]1CC[C@@H](C)C[C@H]1O | -7.44 |
| CC(=O)[C@H]1[C@H](C#N)C[C@H]2[C@@H]3CC=C4C[C@@H](O)CC[C@]4(C)[C@H]3CC[C@@]21C | 28.3 |
| c1ccc(Nc2cccc3ccccc23)cc1 | -1.93 |
